For two molecules, binding results are on record in PMC9176654.

Chains of the proteins cited; added tags and fusions are not shown.
UniProt P0DTD8: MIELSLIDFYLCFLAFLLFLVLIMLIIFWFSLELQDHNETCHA
UniProt P0DTC3: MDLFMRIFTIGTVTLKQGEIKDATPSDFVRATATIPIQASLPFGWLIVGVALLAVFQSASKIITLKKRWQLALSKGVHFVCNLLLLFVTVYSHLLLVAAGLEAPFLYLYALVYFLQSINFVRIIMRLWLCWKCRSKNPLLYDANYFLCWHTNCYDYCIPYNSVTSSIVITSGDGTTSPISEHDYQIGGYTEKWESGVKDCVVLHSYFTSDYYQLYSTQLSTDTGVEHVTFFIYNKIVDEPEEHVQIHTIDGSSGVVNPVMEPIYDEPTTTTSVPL

No constants are given. Whether binding was seen depends on the method and setting. Binding seen in cells or lysates may run through a third protein. Some results given as binding are weak or reduced against the parent protein; the word gives no strength. For some assays here: Tags and fused reporters may be left off the sequences shown.

The target in one assay is ORF7b-FLAG (SARS-CoV-2) (UniProt P0DTD8). As to the kind of experiment: co-IP.
The next assay addresses ORF3a-FLAG (SARS-CoV-2) (UniProt P0DTC3). Put plainly: co-IP.

B1: STT3A-MYC (protein, UniProt P46977 1-705)
chain: MTKFGFLRLSYEKQDTLLKLLILSMAAVLSFSTRLFAVLRFESVIHEFDPYFNYRTTRFLAEEGFYKFHNWFDDRAWYPLGRIIGGTIYPGLMITSAAIYHVLHFFHITIDIRNVCVFLAPLFSSFTTIVTYHLTKELKDAGAGLLAAAMIAVVPGYISRSVAGSYDNEGIAIFCMLLTYYMWIKAVKTGSICWAAKCALAYFYMVSSWGGYVFLINLIPLHVLVLMLTGRFSHRIYVAYCTVYCLGTILSMQISFVGFQPVLSSEHMAAFGVFGLCQIHAFVDYLRSKLNPQQFEVLFRSVISLVGFVLLTVGALLMLTGKISPWTGRFYSLLDPSYAKNNIPIIASVSEHQPTTWSSYYFDLQLLVFMFPVGLYYCFSNLSDARIFIIMYGVTSMYFSAVMVRLMLVLAPVMCILSGIGVSQVLSTYMKNLDISRPDKKSKKQQDSTYPIKNEVASGMILVMAFFLITYTFHSTWVTSEAYSSPSIVLSARGGDGSRIIFDDFREAYYWLRHNTPEDAKVMSWWDYGYQITAMANRTILVDNNTWNNTHISRVGQAMASTEEKAYEIMRELDVSYVLVIFGGLTGYSSDDINKFLWMVRIGGSTDTGKHIKENDYYTPTGEFRVDREGSPVLLNCLMYKMCYYRFGQVYTEAKRPPGFDRVRNAEIGNKDFELDVLEEAYTTEHWLVRIYKVKDLDNRGLSRT
Turning to B1, in the assay with ORF7b-FLAG (SARS-CoV-2), the binding entry was “binds”.

B2: ZNF579 (protein, UniProt Q8NAF0 1-562)
chain: MDPQPPPPAQGSPPHRGRGRGRGRGRGRGRGRGRGGAGAPRAPLPCPTCGRLFRFPYYLSRHRLSHSGLRPHACPLCPKAFRRPAHLSRHLRGHGPQPPLRCAACPRTFPEPAQLRRHLAQEHAGGEVELAIERVAKETAEPSWGPQDEGSEPPTTAAAGATEEEAVAAWPETWPAGEPSTLAAPTSAAEPRESESEEAEAGAAELRAELALAAGRQEEKQVLLQADWTLLCLRCREAFATKGELKAHPCLRPEGEQEGEGGPPPRPKRHQCSICLKAFARPWSLSRHRLVHSTDRPFVCPDCGLAFRLASYLRQHRRVHGPLSLLAPLPAAGKKDDKASGARNSAKGPEGGEGAECGGASEGGEGQNGGDAAPARPPAGEPRFWCPECGKGFRRRAHLRQHGVTHSGARPFQCVRCQREFKRLADLARHAQVHAGGPAPHPCPRCPRRFSRAYSLLRHQRCHRAELERAAALQALQAQAPTSPPPPPPPLKAEQEEEGLPLPLANIKEEPPSPGTPPQSPPAPPVFLSASCFDSQDHSAFEMEEEEVDSKAHLRGLGGLAS
For the molecule B2, the binding entry with ORF3a-FLAG (SARS-CoV-2) was “binds”.
